PubChem BioAssay AID652259 | Drosophila RNAi Screening Center, 2013
In all, the deposit lists about 22,000 reagents; shown is an unselected part of those that have a named target and a result. In the full data, 233 (1.1%) were called active. 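Light values are raw, unnormalised plate reads; the ratio scores behind the reporter calls were not deposited.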 Unmarked entries are inactive. A plus sign joins genes that one reagent is predicted to hit. Not stated in the record: the amount of reagent, the time to read-out, the dose of the treatment.

Aim: 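Genome-wide hunt for genes that control Wingless pathway activity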 (primary screen)
Cells: Drosophila clone 8 imaginal disc epithelial cells
Knock-down reagent: long dsRNA against Drosophila genes
Challenge: pathway stimulated by co-transfected Wingless expression plasmid
Detection: 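Dual luciferase reads per well after Wingless plasmid stimulation: reporter firefly light and Renilla control light; activity is firefly divided by Renilla, a ratio not deposited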
Scale: firefly reporter light: higher = more Wg reporter light, before normalisation; Renilla control light: higher = more transfected or surviving cells
Active means: 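Strong candidates differ from their plate mean by at least two out of four per-plate statistical tests; weak candidates meet just one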
Meaning of the calls: active = candidate regulator (raises or lowers reporter); inactive = not a candidate

gene,DRSC id,"firefly reporter light, replicate 1","firefly reporter light, replicate 2","Renilla control light, replicate 1","Renilla control light, replicate 2"
CG8813,DRSC00706,10161,,3514,
Rab10,DRSC20572,22646,,10930,
CG30416,DRSC04565,2560,5878,481,1209
SMSr,DRSC10998,8233,,3377,
SMSr,DRSC10999,1708,6235,1216,2822
lncRNA:CR43493 + l(1)G0196,DRSC20628,4662,10834,1553,2688
CAH15,DRSC04534,1533,5976,800,2168
CG7966,DRSC16356,7768,,2613,
RabX1,DRSC04678,2647,8833,653,2580
CG14778,DRSC17953,27544,,21267,
mdu,DRSC19860,29723,,4976,
Nt5b,DRSC19976,2069,7499,896,3312
Nt5b,DRSC19977,24581,,12841,
Nt5b,DRSC19978,17559,,11315,
Nt5b,DRSC22588,7.29e5,6.84e5,2.55e5,90366
CG32706 + CG6999,DRSC18412,22875,,15973,
Cpr78Cc,DRSC11846,15034,,4992,
CG13202,DRSC06326,7632,,2996,
CG11141,DRSC06048,15296,,4240,
CG12948,DRSC14576,14320,,3952,
Rdh1,DRSC06812,8396,,2368,
Appl,DRSC17728,1336,5490,833,2018
CG31517,DRSC13010,4098,,1611,
opa,DRSC12384,20044,,7397,
opa,DRSC22563,5.85e5,6.70e5,1.32e5,1.07e5
CG32081,DRSC09861,5302,,2955,
zetaTry,DRSC07720,8298,,3104,
ng1,DRSC18802,16449,,12781,
CG17928,DRSC02644,2848,6352,1229,3303
CG7135,DRSC20026,15114,,10093,
sr,DRSC13284,2035,,1325,
sr,DRSC17067,14515,,2426,
CG34326 (retired record),DRSC19165,4704,,1728,
Obp46a,DRSC06220,2819,7072,869,2620
viaf,DRSC10326,4849,,2332,
CG3437,DRSC10366,6340,,2214,
TotB,DRSC15842,14162,,3012,
Rift,DRSC14330,18305,,15365,
Tango2,DRSC19394,3155,5592,1074,2260
Tango2,DRSC21526,5.83e5,5.30e5,2.37e5,1.81e5
CG17681,DRSC02632,3396,4470,1308,2640
dimm,DRSC03100,2759,10688,845,3248
lap,DRSC12628,7015,,2754,
Gmppa,DRSC07108,6970,,2292,
CG10347,DRSC19352,21020,,10897,
CG4238,DRSC00090,28295,,13728,
CG4238,DRSC00644,2866,11090,1235,4327
side-II,DRSC01427,21973,,12116,
side-II,DRSC01429,17104,,10714,
side-II,DRSC01913,3024,6763,1604,3683
side-II,DRSC01932,3734,10202,2163,5941
side-II,DRSC02480,4192,11651,1290,5936
side-II,DRSC22508,3.81e5,3.91e5,1.26e5,95227
CG8229 + CG33199,DRSC05134,15542,,7536,
Nup188,DRSC21830,7.76e5,8.20e5,2.75e5,2.62e5
Cbp53E,DRSC07356,15393,,4676,
CG6805,DRSC07011,16100,,6979,
CG32633,DRSC18987,3701,,682,
CG12107,DRSC06102,11301,,2160,
CG16704,DRSC00475,2252,8187,1034,3148
CycK,DRSC03714,18839,,4199,
CG15225,DRSC04232,3430,13197,1062,3347
CG5561,DRSC00688,4102,9338,1949,3804
Sema2a,DRSC07551,14087,,4648,
CG3168,DRSC18287,2183,5171,529,1716
dop,DRSC10655,2840,,1161,
COX5A,DRSC16611,13123,,2426,
Thor,DRSC00770,16384,,6384,
CG13868,DRSC06427,7520,,2267,
RpS3,DRSC16838,14130,,12304,
UQCR-Q,DRSC10886,8028,,2855,
hpRNA:CR18854,DRSC02702,2003,6880,731,2544
CG18011,DRSC06697,8944,,2540,
CG18011,DRSC06706,2861,7556,1212,3575

Targets listed so far whose gene name begins with O or o (3):
gene,DRSC id,"firefly reporter light, replicate 1","firefly reporter light, replicate 2","Renilla control light, replicate 1","Renilla control light, replicate 2"
opa,DRSC12384,20044,,7397,
opa,DRSC22563,5.85e5,6.70e5,1.32e5,1.07e5
Obp46a,DRSC06220,2819,7072,869,2620
